# Measurements reported in PubChem BioAssay AID1259405 (NCATS, 2018)
# Assay: 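Silenced genes that increase secreted GFP made by CHO cells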 (primary screen)
# Cell system: Chinese hamster CHO-K1 ovary cells with stable secreted eGFP expression
# Reagent: single siRNA against mouse genes, 0.8 pmol siRNA per well (2 µl of 400 nM stock)
# Timing: 3 days
# Measured: 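Per-well intracellular GFP measured by laser scanning cytometry, plus viability from ATP luminescence, each relative to plate median of non-targeting control wells, in %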
# Reading the numbers: GFP, % of control: higher = more GFP per well, higher productivity; viability (ATP), % of control: higher = more viable cells (more ATP)
# Rule for the call: 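a knock-down is called active if GFP reaches 120% or more of non-targeting control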
# The whole screen tested about 50,000 reagents; shown is an unselected part. Over the whole deposit, about 4,000 (8%) got an active call. 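Mouse siRNA library applied to hamster cells; one well for each siRNA.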 Reagent sequences are not shown.
gene knocked down,PubChem SID,"GFP, % of control","viability (ATP), % of control",Outcome
Or5h17,SID363554324,59.5,92.4,inactive
Or5h17,SID363567771,36.2,29.9,inactive
Or5h17,SID363585128,43.8,103,inactive
Or5ac23,SID363554416,55.5,65.2,inactive
Or5ac23,SID363567863,74.2,51,inactive
Or5ac23,SID363585220,53.4,84.8,inactive
Poll,SID363568996,86.9,100,inactive
Poll,SID363583428,94.7,66.5,inactive
Tob1,SID363556452,65.5,88,inactive
Tob1,SID363586902,108,114,inactive
Tob1,SID363589010,111,142,inactive
Gm4792,SID363539683,73.9,75.3,inactive
Gm4792,SID363560984,195,58.2,active
Gm4792,SID363565074,71,71.8,inactive
Accs,SID363545406,117,85.7,inactive
Accs,SID363548919,82.9,78.8,inactive
Accs,SID363562725,33.1,58,inactive
Or52b2,SID363554235,94.6,71.4,inactive
Or52b2,SID363567682,95,53.6,inactive
Or52b2,SID363585039,65.3,74.2,inactive
Miip,SID363539635,73.9,94.6,inactive
Miip,SID363560936,53.1,63,inactive
Miip,SID363565026,116,64.5,inactive
P2ry2,SID363544883,50.9,37.1,inactive
P2ry2,SID363551211,71.2,68.4,inactive
P2ry2,SID363557760,48.2,67.3,inactive
Slc8a3,SID363547558,72.4,90.9,inactive
Slc8a3,SID363558327,114,73.3,inactive
Slc8a3,SID363560085,93,68.4,inactive
Abhd5,SID363571186,78,53,inactive
Abhd5,SID363571538,121,86,active
Abhd5,SID363571890,49.9,46.4,inactive
Fabp1,SID363570092,82.9,111,inactive
Fabp1,SID363576428,182,91.9,active
Fabp1,SID363579596,40,67.9,inactive
Ppp2r1b,SID363547760,128,136,active
Ppp2r1b,SID363558529,93.5,101,inactive
Ppp2r1b,SID363560287,74.3,85.7,inactive
Tle2,SID363547219,137,117,active
Tle2,SID363557988,89,55.6,inactive
Tle2,SID363559746,62.8,64.4,inactive
Nrdc,SID363569736,111,88.1,inactive
Nrdc,SID363576776,138,104,active
Nrdc,SID363578184,75.9,75.5,inactive
Rpl5,SID363554012,44.1,40.7,inactive
Rpl5,SID363561969,68.2,61.1,inactive
Rpl5,SID363565707,60.7,41.4,inactive
Rnase13,SID363554999,122,75.2,active
Rnase13,SID363568446,69.9,80.1,inactive
Rnase13,SID363586505,104,97.3,inactive
Nop53,SID363540149,74.4,73.3,inactive
Nop53,SID363561450,46.3,49.2,inactive
Nop53,SID363564486,101,96.7,inactive
Dpp7,SID363574381,106,96.5,inactive
Dpp7,SID363575437,112,91.8,inactive
Dpp7,SID363580013,72.3,88.9,inactive
Perp,SID363554518,93.1,67.6,inactive
Perp,SID363567965,110,66.3,inactive
Perp,SID363586024,29.7,44.7,inactive

4 of these entries, reformatted:
{"gene knocked down":"Tle2","PubChem SID":"SID363547219","GFP, % of control":137,"viability (ATP), % of control":117,"Outcome":"active"}
{"gene knocked down":"Tle2","PubChem SID":"SID363557988","GFP, % of control":89,"viability (ATP), % of control":55.6,"Outcome":"inactive"}
{"gene knocked down":"Tle2","PubChem SID":"SID363559746","GFP, % of control":62.8,"viability (ATP), % of control":64.4,"Outcome":"inactive"}
{"gene knocked down":"Nrdc","PubChem SID":"SID363569736","GFP, % of control":111,"viability (ATP), % of control":88.1,"Outcome":"inactive"}
